Reference: paper PMC13096421
Results are given in words; binding and its absence hold for the method and conditions named. In cells and extracts the contact can be indirect. Some binding calls cover weakened binding; strength is not graded here.

Sequences of proteins named here, by UniProt entry; tags and fusion partners are left off. Residues count along the entry.
UniProt Q00960, residues 27-1482: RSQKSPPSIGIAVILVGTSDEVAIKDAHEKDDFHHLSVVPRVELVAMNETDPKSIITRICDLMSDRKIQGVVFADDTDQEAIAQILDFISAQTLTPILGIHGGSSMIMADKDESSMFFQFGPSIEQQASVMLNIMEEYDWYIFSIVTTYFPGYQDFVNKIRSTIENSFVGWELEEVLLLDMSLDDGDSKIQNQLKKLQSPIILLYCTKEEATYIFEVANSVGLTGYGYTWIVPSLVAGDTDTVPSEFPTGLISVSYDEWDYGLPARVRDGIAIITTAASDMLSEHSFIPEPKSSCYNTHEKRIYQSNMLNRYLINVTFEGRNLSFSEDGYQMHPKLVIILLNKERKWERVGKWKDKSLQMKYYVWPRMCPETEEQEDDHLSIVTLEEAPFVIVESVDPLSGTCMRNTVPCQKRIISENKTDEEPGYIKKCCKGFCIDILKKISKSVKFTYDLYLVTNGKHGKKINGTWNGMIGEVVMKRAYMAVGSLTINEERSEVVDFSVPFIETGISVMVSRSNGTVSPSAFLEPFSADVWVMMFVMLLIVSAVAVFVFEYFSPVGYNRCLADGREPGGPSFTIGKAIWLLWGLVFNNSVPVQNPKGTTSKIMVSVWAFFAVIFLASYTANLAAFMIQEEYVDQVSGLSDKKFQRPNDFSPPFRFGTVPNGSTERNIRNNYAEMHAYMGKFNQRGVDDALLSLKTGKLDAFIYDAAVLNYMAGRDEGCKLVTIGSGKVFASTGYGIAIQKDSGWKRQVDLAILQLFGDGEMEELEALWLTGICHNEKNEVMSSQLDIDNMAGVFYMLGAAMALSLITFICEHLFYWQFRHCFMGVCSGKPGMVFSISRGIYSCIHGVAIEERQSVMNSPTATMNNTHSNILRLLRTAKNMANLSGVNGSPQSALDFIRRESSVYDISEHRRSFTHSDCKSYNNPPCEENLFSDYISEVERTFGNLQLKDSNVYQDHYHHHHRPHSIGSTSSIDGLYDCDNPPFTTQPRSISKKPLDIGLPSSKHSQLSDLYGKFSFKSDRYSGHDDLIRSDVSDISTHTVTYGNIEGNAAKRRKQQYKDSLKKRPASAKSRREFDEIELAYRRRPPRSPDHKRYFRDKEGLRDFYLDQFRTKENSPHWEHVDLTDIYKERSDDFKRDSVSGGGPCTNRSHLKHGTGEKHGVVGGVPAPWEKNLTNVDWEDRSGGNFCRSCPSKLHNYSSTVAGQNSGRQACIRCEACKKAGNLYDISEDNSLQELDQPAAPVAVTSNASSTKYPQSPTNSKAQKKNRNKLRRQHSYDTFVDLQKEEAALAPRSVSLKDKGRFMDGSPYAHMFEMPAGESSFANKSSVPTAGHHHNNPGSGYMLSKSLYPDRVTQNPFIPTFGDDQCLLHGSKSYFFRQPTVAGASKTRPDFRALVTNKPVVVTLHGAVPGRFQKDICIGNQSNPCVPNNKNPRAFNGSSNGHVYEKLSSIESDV
UniProt P31422, residues 23-879: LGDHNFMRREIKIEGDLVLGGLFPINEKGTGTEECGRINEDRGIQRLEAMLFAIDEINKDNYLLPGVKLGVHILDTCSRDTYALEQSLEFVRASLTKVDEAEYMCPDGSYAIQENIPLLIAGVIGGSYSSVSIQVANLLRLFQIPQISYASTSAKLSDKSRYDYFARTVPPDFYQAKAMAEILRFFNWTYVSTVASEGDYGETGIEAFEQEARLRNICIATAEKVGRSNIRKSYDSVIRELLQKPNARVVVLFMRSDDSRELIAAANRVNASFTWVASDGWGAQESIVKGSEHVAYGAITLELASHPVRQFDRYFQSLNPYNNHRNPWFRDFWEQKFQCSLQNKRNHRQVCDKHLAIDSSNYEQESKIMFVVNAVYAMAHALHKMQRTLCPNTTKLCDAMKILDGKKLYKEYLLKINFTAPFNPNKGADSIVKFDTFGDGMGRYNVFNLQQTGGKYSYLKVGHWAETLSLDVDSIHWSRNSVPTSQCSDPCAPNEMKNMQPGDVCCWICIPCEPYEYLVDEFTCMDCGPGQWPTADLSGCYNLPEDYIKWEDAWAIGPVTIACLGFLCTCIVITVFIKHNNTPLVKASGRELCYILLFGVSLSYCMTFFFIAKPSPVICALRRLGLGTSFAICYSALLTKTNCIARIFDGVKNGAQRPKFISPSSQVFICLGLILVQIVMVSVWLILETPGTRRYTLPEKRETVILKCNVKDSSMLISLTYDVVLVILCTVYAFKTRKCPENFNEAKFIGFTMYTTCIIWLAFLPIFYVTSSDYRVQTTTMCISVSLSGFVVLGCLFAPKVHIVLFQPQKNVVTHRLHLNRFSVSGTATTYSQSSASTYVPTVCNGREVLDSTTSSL
UniProt P31424, residues 21-1203: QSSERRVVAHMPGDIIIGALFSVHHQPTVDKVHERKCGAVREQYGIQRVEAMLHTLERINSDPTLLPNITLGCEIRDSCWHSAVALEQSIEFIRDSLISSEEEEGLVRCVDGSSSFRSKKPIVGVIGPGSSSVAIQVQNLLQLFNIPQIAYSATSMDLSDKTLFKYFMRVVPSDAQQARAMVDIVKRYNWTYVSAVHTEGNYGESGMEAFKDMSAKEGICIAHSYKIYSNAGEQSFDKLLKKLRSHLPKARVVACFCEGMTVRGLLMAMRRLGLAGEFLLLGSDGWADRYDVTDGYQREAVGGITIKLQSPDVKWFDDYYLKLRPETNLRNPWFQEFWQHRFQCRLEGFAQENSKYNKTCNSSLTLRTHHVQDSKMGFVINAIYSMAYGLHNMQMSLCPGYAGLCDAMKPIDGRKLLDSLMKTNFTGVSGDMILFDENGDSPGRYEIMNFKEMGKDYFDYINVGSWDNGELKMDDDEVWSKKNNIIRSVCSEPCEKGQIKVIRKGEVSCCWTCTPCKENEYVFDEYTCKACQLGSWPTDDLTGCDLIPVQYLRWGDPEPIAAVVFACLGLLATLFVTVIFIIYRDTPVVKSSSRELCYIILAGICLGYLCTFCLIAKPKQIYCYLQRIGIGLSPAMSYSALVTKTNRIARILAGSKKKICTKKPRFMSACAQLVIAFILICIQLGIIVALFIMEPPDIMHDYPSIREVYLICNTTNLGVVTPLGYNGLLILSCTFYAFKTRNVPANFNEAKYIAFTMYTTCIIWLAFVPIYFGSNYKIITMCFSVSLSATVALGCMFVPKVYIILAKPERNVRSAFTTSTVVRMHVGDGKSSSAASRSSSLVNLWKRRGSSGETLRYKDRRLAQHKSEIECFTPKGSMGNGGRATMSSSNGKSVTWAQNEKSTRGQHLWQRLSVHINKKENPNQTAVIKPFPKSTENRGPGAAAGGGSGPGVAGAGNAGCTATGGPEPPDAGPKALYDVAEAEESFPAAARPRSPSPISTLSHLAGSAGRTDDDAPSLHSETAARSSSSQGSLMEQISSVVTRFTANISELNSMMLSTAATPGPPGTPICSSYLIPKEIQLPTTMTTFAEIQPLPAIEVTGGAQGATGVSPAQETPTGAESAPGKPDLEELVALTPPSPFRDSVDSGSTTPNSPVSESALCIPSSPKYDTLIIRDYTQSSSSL
UniProt P15385: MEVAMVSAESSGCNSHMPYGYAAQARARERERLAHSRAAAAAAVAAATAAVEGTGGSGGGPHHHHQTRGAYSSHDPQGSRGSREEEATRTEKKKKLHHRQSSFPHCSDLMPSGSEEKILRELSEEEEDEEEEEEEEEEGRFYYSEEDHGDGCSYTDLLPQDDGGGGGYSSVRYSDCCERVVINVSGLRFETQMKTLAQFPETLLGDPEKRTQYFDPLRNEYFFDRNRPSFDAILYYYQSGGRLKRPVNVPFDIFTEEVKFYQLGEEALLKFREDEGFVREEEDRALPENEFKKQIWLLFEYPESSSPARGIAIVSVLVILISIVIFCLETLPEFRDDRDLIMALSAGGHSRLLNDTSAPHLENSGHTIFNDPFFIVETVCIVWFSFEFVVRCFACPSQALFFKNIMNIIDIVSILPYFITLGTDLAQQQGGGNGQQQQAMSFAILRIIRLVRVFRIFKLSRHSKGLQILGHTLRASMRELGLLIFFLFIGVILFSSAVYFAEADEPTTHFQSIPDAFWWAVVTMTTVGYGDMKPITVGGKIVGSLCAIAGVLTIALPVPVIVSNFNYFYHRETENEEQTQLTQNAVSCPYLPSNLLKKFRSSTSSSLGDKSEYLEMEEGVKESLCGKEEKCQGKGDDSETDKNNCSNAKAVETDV
UniProt Q08460: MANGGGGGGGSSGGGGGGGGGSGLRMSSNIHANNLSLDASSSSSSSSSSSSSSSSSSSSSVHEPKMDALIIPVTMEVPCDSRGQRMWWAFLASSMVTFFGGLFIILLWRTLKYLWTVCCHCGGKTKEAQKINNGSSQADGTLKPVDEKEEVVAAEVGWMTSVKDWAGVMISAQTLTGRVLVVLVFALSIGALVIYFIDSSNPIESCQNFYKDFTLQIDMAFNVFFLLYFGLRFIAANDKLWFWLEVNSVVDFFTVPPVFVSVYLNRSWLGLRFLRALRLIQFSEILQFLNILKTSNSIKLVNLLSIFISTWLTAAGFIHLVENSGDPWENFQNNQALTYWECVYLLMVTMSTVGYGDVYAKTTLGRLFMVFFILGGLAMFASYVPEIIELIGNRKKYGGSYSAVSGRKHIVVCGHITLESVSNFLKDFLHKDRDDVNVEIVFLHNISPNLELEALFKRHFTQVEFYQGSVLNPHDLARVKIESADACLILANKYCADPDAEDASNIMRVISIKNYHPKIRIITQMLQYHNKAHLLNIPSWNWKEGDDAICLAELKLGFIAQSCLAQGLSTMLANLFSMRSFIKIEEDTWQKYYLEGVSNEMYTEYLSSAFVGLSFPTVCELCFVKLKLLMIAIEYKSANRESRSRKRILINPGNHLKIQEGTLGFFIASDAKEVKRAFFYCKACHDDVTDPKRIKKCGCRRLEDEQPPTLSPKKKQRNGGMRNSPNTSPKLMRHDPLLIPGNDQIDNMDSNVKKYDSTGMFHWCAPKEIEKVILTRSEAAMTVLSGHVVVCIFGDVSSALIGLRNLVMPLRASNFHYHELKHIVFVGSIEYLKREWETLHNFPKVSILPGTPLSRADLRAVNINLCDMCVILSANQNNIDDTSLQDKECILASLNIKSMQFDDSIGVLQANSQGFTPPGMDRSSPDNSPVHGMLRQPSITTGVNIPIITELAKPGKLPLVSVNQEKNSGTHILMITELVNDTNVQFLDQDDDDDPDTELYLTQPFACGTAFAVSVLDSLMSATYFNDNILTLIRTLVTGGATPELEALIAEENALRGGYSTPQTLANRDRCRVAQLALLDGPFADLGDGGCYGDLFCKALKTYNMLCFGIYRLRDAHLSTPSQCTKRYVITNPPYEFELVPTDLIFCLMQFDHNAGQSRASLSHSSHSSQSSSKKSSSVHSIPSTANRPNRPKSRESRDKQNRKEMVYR

Assays:
[1] = target: Grin2b (rat (endogenous in hippocampus)) (UniProt Q00960); experiment: co-IP; endogenous bait immunoprecipitated with antibody-crosslinked beads from rat brain (hippocampus) homogenate, same protocol as for LC-MS, eluted in Laemmli buffer, immunoblot
[2] = target: rat Grm3 with a C-terminal Myc tag (rat) (UniProt P31422); experiment: co-IP; HEK or N2A cells transfected with Myc-tagged receptor and untagged BK-alpha; lysis in 4 mM HEPES pH 7.4, 200 mM NaCl, 0.5% NP-40, 0.5% Triton; Myc agarose beads; immunoblot with anti-Kcnma1 and anti-Myc
[3] = target: rat Grm5 with a C-terminal Myc tag (rat) (UniProt P31424); experiment: as above

“Potassium voltage-gated channel subfamily A member 4 (Kcna4) (from UniProt P15385 1-655)” was tested, and the binding [1] was “binds”.
With “untagged mouse BK-alpha (from UniProt Q08460 1-1209)” the binding [2] was “no binding” and the binding [3] was “binds”.
